PubChem BioAssay AID493014 (National Center for Advancing Translational Sciences (NCATS), 2011)
“And” between values parts separate entries of the source, which are not always exact repeats. Equal values may be shown once. In all, about 340,000 compounds went through this assay and about 170 (0.05%) were called active. The inconclusive results got no clear call from the source; some entries with a clear call stand among them for comparison. Calls come from the whole dose curve; as a rule, active = well fitted inhibition curve with a large enough effect in the signal ratio, with a control signal flat (not every such curve was filed as active); inconclusive = small, poorly fitted or top-dose-only effect, or effect the other way, or a change in a side signal; inactive = flat fitted curve, though single readings scatter; the % refers to the signal ratio. Potencies beside an inconclusive call are fits to weak or partial responses and may not hold up.

Assay: qHTS Assay to Find Inhibitors of Chronic Active B-Cell Receptor Signaling;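 for activity change, negative = inhibition: plate controls were basal doxycycline-induced cells for no effect and cells given 10 µM MG132 for full effect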
Conditions: ABC-DLBCL IkBa-CBG/CBR reporter, luminescence ratio (green luciferase fused to IkBa over red control in TMD8 lymphoma cells), 4 h; activity change, negative = inhibition: at 46.1 µM (top of the series)
Outline: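 TMD8 human ABC-DLBCL cells with doxycycline-inducible IκBα–green luciferase fusion and unfused red luciferase, in 0.5% FBS medium; compounds up to 46 uM, 4 h at 37C. Green/red luminescence ratio, filter-overlap corrected, fitted to concentration-response curves.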
Potency is the fitted concentration of half-maximal effect.

SMILES	activity change, negative = inhibition	Potency
COc1cc(OC)c(C(=O)O/N=C(\N)c2ccc(C)cc2)cc1OC	inactive	
O=C(NCC1CCCCC1)c1ccc(Br)o1	inactive	
Cc1ccc(C2(C)NC(=O)N(CC(=O)N(C)CC(=O)Nc3cccc4ccccc34)C2=O)cc1 (configuration not stated)	inactive	
O=C(NCCc1c[nH]c2ccccc12)C(=O)NCC1OCCN1S(=O)(=O)c1ccc(F)cc1 (configuration not stated)	inconclusive: 0.0476%	
CCCNC(=O)c1ccccc1NC(=O)Nc1ccccc1C	inconclusive: 4.57%	
COc1cc(CNC(=O)c2nc(Cn3nc(C)c(Br)c3C)no2)cc(OC)c1	inactive	
CCN(CC)S(=O)(=O)c1ccc(N2CCCCC2)c(NC(=O)C2CCN(C(=O)c3ccc(F)cc3)CC2)c1		inconclusive: 23.1 µM [rising, partial curve, poor fit]
COc1ccc(OC)c(C(c2nnnn2C2CCCC2)N2CCN(c3ccccc3F)CC2)c1 (configuration not stated)	inactive	
CC1(C(=O)OCc2cc(=O)n3cc(Br)ccc3n2)CC1(Cl)Cl (configuration not stated)	inconclusive: 8.08%	
CCOC(=O)N1CCC(N2CCN(c3ccccc3)CC2)CC1	inactive	
CC(=O)c1cccc(NC(=O)Nc2cccs2)c1	inconclusive: -3.35%	
O=C1CCC2S/C(=C/Nc3ccc(C(F)(F)F)cc3)C(=O)N12 (configuration not stated)	inconclusive: 181%	
O=C(NCCN1CCN(c2ccccc2)CC1)c1cccn2c(=O)c3ccccc3nc12	inactive	
C=CCN1c2ccccc2[C@]23C[C@@H](C(=O)OC)N(C(=O)c4cccs4)C2=NC(C(=O)OC)=C(C(=O)OC)[C@H]13	inactive	
C=C[C@@H]1c2ccccc2N(S(=O)(=O)c2ccc(C)cc2)[C@H](c2ccc(C(F)(F)F)cc2)C1(C#N)C#N	inconclusive: 5.79%	
CCCn1c(=O)c2c(C(F)(F)F)cc(-c3ccco3)nc2n(CCC)c1=O	inactive	
COc1ccc(N2CS(=O)(=O)/C(=C/N(C)C)C2=O)cc1	inconclusive: 1.8%	
CC(C)(C)c1nc(NCCO)c2nnn(Cc3ccccc3)c2n1	inconclusive: -8.39%	
CC(C)n1c(O)c(N=NC(=O)CNC(=O)Cc2ccc(Cl)cc2)c2ccccc21	inactive	
O=C(NC1CCCCC1)C(c1ccc(F)cc1)N(Cc1ccccc1)C(=O)CN1C(=O)c2ccccc2S1(=O)=O (configuration not stated)	inactive	
CCOC(=O)c1ccc(Oc2nc(N(C)C)nc(N3CCOCC3)n2)cc1	inconclusive: 3.38%	

SMILES	activity change, negative = inhibition	Potency
CCOC(=O)c1ccccc1NC(=O)c1cn(-c2ccc(OC)cc2)c(=O)c2ccccc12	inconclusive: -0.0933%	
N/C(=N\OC(=O)c1ccc2c(c1)OCO2)c1ccncc1		inconclusive: 20 µM [falling, single point]
COc1cc(C(C#N)N2N=C(c3ccccc3)CC2c2ccccc2)ccc1O (configuration not stated)	inactive	
O=C(COC(=O)C1=COCCO1)NCc1ccc(F)cc1	inactive	
O=C(NCc1ccccc1Cl)C(=O)c1c[nH]c2ccccc12	inconclusive: 200%	
CCCN(CCC)CCCNC(=S)Nc1ccc2nc(N3CCCC3)cc(C)c2c1	inconclusive: -25%	
Cc1[nH]n(-c2ccccc2)c(=O)c1C=Nc1cccc(F)c1	inconclusive: 13.7%	
CN(C)CCCNc1ccc(-c2nn(C)c(=O)c3ccccc23)cc1[N+](=O)[O-]		inconclusive: 28.2 µM [falling, partial curve, poor fit]
Cc1cccc2nc(-c3ccco3)oc(=O)c12	inconclusive: -1.01%	
CC1SC(C)C(=O)N(CC(=O)NCc2ccc(F)cc2)C1=O (configuration not stated)	inconclusive: 1.41%	
COc1ccc(Nc2nc(C)c3ccccc3n2)cc1	inconclusive: -26.9%	
NC(=O)C1CCN(c2nc(-c3cccc(Cl)c3)cs2)CC1	inconclusive: -2.67% and inconclusive: 20.2%	
Cc1ccc(C)c(N(CC(=O)NC2CCCC2)C(=O)c2oc(C(C)(C)C)cc2C)c1	inconclusive: 0.612%	
COCCNC(=O)c1onc(CSc2cccc(C)c2)c1C(=O)O	inconclusive: -13.2%	
COc1ccc(CCn2c(=N)c(C(=O)NC3CCCC3)cc3c(=O)n4cccc(C)c4nc32)cc1	inactive	
CCN(CC)C(=O)CN1C(=O)C2(OCC(C)(c3ccccc3)CO2)c2ccccc21 (configuration not stated)	inconclusive: 3.51%	
CN(C)/C=C(\C#N)C(=O)N/N=C/c1ccccc1	inactive	
COc1ccc2c(c1)c(CC(=O)Nc1cccc(S(N)(=O)=O)c1)c(C)n2C(=O)c1ccc(Cl)cc1		inconclusive: 2.82 µM [falling, partial curve, poor fit]
CC(C)=C1SC(N2CCN(c3ccc(Cl)cc3)CC2)=NC1=O	inactive	
COCC(=O)N1CCC(Oc2ccc(C(=O)N3C[C@H]4CC[C@H]3C4)cc2)CC1	inactive	
O=C(C[n+]1cc(-c2ccc(F)cc2)n2c1CCC2)OCc1ccccc1	inactive	

SMILES	activity change, negative = inhibition	Potency
CCCNC(=S)Nc1ccc(Cl)cc1C	inactive	
Cc1cc(C)c(S(=O)(=O)ON2C(=O)c3ccccc3C2=O)cc1C	inconclusive: -8.77%	
CN(C)c1nc(OCCNC(=O)COc2ccc(Cl)cc2Cl)nc(N2CCOCC2)n1	inconclusive: 1.01%	
O=C(NCc1ccco1)c1cc2n(n1)C(C(F)(F)F)CC(c1ccc(Br)cc1)N2 (configuration not stated)	inconclusive: 4.05%	
Cc1c(/C=C2\SC(=Nc3cccc(C(=O)O)c3)NC2=O)c2ccccc2n1C		inconclusive: 31.6 µM [falling, single point]
COc1ccc(-n2cnc3cc(N)ccc32)cc1	inconclusive: 3.32%	
O=C1c2ccccc2[C@@H]2CC(O)C(O)CCN12 (some centres not stated)	inactive	
CN(CC(=O)Nc1ccc(OC(F)(F)F)cc1)C(=O)Cn1c(=O)cnc2ccccc21	inconclusive: -14.9%	
COc1cccc(CNc2ncc(C(=O)Nc3cc(OC)c(OC)c(OC)c3)c(C)n2)c1		inconclusive: 10 µM [falling, partial curve]
CCOc1ccc(OCc2ccc(C(=O)N3N=C(C(F)F)CC3(O)C(F)F)o2)cc1 (configuration not stated)		inconclusive: 29.1 µM [falling, single point]
COc1ccc(S(=O)(=O)N2CCOC2CNC(=O)C(=O)NCCc2ccccc2)cc1C (configuration not stated)		inconclusive: 20 µM [falling, single point]
Cc1ccc(-n2nc(-c3ccc(OC(F)(F)F)cc3)cc2N)cc1C	inconclusive: 11.6%	
CCOC(=O)c1cn(Cc2cccc(Cl)c2)nn1	inactive	
Cc1ccc(NN=Nc2nc3c([nH]2)c(=O)n(C)c(=O)n3C)cc1	inconclusive: 11.7%	
Oc1c(Br)cc(C2N=C(c3ccccc3)NO2)cc1Br (configuration not stated)	inconclusive: 19.4%	
Cn1c(NC(=S)Nc2ccccc2)nc2ccccc21		inconclusive: 6.51 µM [falling, single point]
Cc1cc(=O)oc2c3c(cc(OCC(=O)NCc4ccncc4)c12)OC(C)(C)CC3	inconclusive: 14.1%	
COc1ccc(/C=C(\NC(=O)c2ccccc2)C(=O)NCc2cccnc2)cc1	inconclusive: 3.2%	
CC(=O)c1cccc(-c2csc(N3CCC(C(N)=O)CC3)n2)c1	inconclusive: 2.16% and inconclusive: -5.39%	
CC(C)c1ccc(NC(=O)[C@H](Cc2c[nH]c3ccccc23)NC(=O)[C@@H]2Cc3ccccc3CN2)cc1	inconclusive: -0.735%	
c1cncc(Nc2c3ccccc3nc3ccccc23)c1	inconclusive: -1.67%	

SMILES	activity change, negative = inhibition	Potency
Cc1cccc(Nc2nc(-c3ccc(O)c(O)c3)cs2)n1		inconclusive: 35.5 µM [falling, single point]
Nc1ccc(C(=O)OCC(=O)Nc2cccc(S(=O)(=O)NC3=NCCCCC3)c2)cc1[N+](=O)[O-]	inactive	
COc1ccc(NC(=O)C2CC(=O)N(c3ccccc3Cl)C2)c(OC)c1 (configuration not stated)	inactive	
CCOC(=O)CSC1=C(C#N)C(c2ccc(OC)cc2)C2=C(CC(C)(C)CC2=O)N1 (configuration not stated)	inconclusive: 0.26%	
CCOc1ccc(/C(O)=C2/C(=O)C(=O)N(c3ccccn3)C2c2ccc(Cl)cc2)c(C)c1 (configuration not stated)	inconclusive: -1.76%	
CCC(=O)NC(=S)Nc1cccc(NC(=O)c2ccccc2)c1	inconclusive: -18.6%	
COc1ccc(NC(=O)[C@@H](NS(=O)(=O)c2cccc(Cl)c2)C(C)C)cc1S(=O)(=O)N1CCOCC1	inconclusive: 1.06%	
COCCNC(=O)[C@H](C)[C@H]1C[C@]1(C)[C@H](NC(=O)OCc1ccccc1)c1ccccc1	inactive	
Cc1ccc2c(c1)c1n[nH]c(=S)nc1n2CCc1ccccc1	inactive	
CC(=O)Oc1cccc2c1C(=O)c1c(OC(C)=O)cc(C(=O)O)cc1C2=O		inconclusive: 20.6 µM [falling, partial curve]
O=C1CCCc2nn(-c3ccccc3)nc21	inconclusive: 10.3%	
C=CCN(c1ccccc1)S(=O)(=O)c1cccc(C(=O)Nc2nc3ccccc3[nH]2)c1	inconclusive: 12.8%	
O=C(CN1CCN(Cc2ccccc2Cl)CC1)N=Nc1c(O)[nH]c2ccccc12		inconclusive: 25.9 µM [falling, single point]
FC(F)(F)c1cccc(OCCN2CCN(Cc3ccccc3)CC2)c1	inactive	
CSc1nnc(-c2cc(-c3ccc(C)cc3)nc3ccccc23)o1	inconclusive: 8.24%	
CCOC(=O)c1[nH]c2c(c1C)C(=O)CC(c1ccco1)C2 (configuration not stated)	inconclusive: -3.86%	
Cc1ccc2nc(C(F)(F)F)c(C#N)c(N)c2c1		inconclusive: 16.4 µM [rising, partial curve, poor fit]
CC(C)c1ccc(N=C2NN=C(c3cccs3)CS2)cc1	inactive	
N#CCC(=O)NNC(=S)NC(=O)C(c1ccccc1)c1ccccc1	inactive	

Quoted at random: 7 entries already listed.
SMILES	activity change, negative = inhibition	Potency
Cc1ccc2nc(C(F)(F)F)c(C#N)c(N)c2c1		inconclusive: 16.4 µM [rising, partial curve, poor fit]
CC1(C(=O)OCc2cc(=O)n3cc(Br)ccc3n2)CC1(Cl)Cl (configuration not stated)	inconclusive: 8.08%	
O=C(NCc1ccco1)c1cc2n(n1)C(C(F)(F)F)CC(c1ccc(Br)cc1)N2 (configuration not stated)	inconclusive: 4.05%	
CCCn1c(=O)c2c(C(F)(F)F)cc(-c3ccco3)nc2n(CCC)c1=O	inactive	
COCCNC(=O)c1onc(CSc2cccc(C)c2)c1C(=O)O	inconclusive: -13.2%	
CN(C)/C=C(\C#N)C(=O)N/N=C/c1ccccc1	inactive	
CC(C)c1ccc(N=C2NN=C(c3cccs3)CS2)cc1	inactive	
